The list shows a part of the results.
Key:
Test in all cases: glycan array binding signal (z-score within array); higher = stronger binding
Settings in all cases: glycan notation: IUPAC condensed, linker removed
Fuc(a1-2)Gal = molecular target: Fuc(a1-2)Gal
How it was run: (§1)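 Columns mapping to the same glycan were averaged after glycan names were converted to IUPAC-condensed notation. The data come from 3228 arrays in the Consortium for Functional Glycomics database, limited to those with an available protein sequence. Binding is reported as a within-array Z-score averaged across arrays of one protein sequence and across linkers.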

Fuc(a1-2)Gal(b1-3)GalNAc = molecular target: Fuc(a1-2)Gal(b1-3)GalNAc
How it was run: as §1

[1] = molecular target: Fuc(a1-2)Gal(b1-3)GalNAc(a1-3)[Fuc(a1-2)]Gal(b1-4)Glc
How it was run: as §1

[2] = molecular target: Fuc(a1-2)Gal(b1-3)GalNAc(a1-3)[Fuc(a1-2)]Gal(b1-4)GlcNAc
How it was run: as §1

[3] = molecular target: Fuc(a1-2)Gal(b1-3)GalNAc(b1-3)Gal
How it was run: as §1

[4] = molecular target: Fuc(a1-2)Gal(b1-3)GalNAc(b1-3)Gal(a1-4)Gal(b1-4)Glc
How it was run: as §1

[5] = molecular target: Fuc(a1-2)Gal(b1-3)GalNAc(b1-4)[Neu5Ac(a2-3)]Gal(b1-4)Glc
How it was run: as §1

Fuc(a1-2)Gal(b1-3)GlcNAc = molecular target: Fuc(a1-2)Gal(b1-3)GlcNAc
How it was run: as §1

[6] = molecular target: Fuc(a1-2)Gal(b1-3)GlcNAc(b1-2)Man(a1-3)[Fuc(a1-2)Gal(b1-3)GlcNAc(b1-2)Man(a1-6)]Man(b1-4)GlcNAc(b1-4)GlcNAc
How it was run: as §1

[7] = molecular target: Fuc(a1-2)Gal(b1-3)GlcNAc(b1-2)Man(a1-3)[Fuc(a1-2)Gal(b1-3)GlcNAc(b1-2)Man(a1-6)]Man(b1-4)GlcNAc(b1-4)[Fuc(a1-6)]GlcNAc
How it was run: as §1

[8] = molecular target: Fuc(a1-2)Gal(b1-3)GlcNAc(b1-3)Gal(b1-4)Glc
How it was run: as §1

[9] = molecular target: Fuc(a1-2)Gal(b1-3)GlcNAc(b1-3)GalNAc
How it was run: as §1

[10] = molecular target: Fuc(a1-2)Gal(b1-3)GlcNAc(b1-3)[Fuc(a1-2)Gal(b1-3)GlcNAc(b1-6)]GalNAc
How it was run: as §1

[11] = molecular target: Fuc(a1-2)Gal(b1-3)GlcNAc(b1-3)[Gal(b1-4)GlcNAc(b1-6)]Gal(b1-4)Glc
How it was run: as §1

[12] = molecular target: Fuc(a1-2)Gal(b1-3)GlcNAc(b1-3)[Neu5Ac(a2-6)Gal(b1-4)GlcNAc(b1-6)]Gal(b1-4)Glc
How it was run: as §1

[13] = molecular target: Fuc(a1-2)Gal(b1-3)GlcNAc6S
How it was run: as §1

[14] = molecular target: Fuc(a1-2)Gal(b1-3)[Fuc(a1-4)]GlcNAc
How it was run: as §1

[15] = molecular target: Fuc(a1-2)Gal(b1-3)[Fuc(a1-4)]GlcNAc(b1-2)Man(a1-3)[Fuc(a1-2)Gal(b1-3)[Fuc(a1-4)]GlcNAc(b1-2)Man(a1-3)]Man(b1-4)GlcNAc(b1-4)GlcNAc
How it was run: as §1

[16] = molecular target: Fuc(a1-2)Gal(b1-3)[Fuc(a1-4)]GlcNAc(b1-2)Man(a1-3)[Fuc(a1-2)Gal(b1-3)[Fuc(a1-4)]GlcNAc(b1-2)Man(a1-6)]Man(b1-4)GlcNAc(b1-4)[Fuc(a1-6)]GlcNAc(b1-4)[Fuc(a1-6)]GlcNAc
How it was run: as §1

[17] = molecular target: Fuc(a1-2)Gal(b1-3)[Fuc(a1-4)]GlcNAc(b1-3)[Fuc(a1-3)[Gal(b1-4)]GlcNAc(b1-6)]Gal(b1-4)Glc
How it was run: as §1

[18] = molecular target: Fuc(a1-2)Gal(b1-3)[Fuc(a1-4)]GlcNAc(b1-3)[Gal(b1-4)GlcNAc(b1-6)]Gal(b1-4)Glc
How it was run: as §1

[19] = molecular target: Fuc(a1-2)Gal(b1-4)Fuc(a1-3)]GlcNAc(b1-2)Man(a1-3)[Fuc(a1-2)Gal(b1-4)[Fuc(a1-3)]GlcNAc(b1-2)Man(a1-6)]Man(b1-4)GlcNAc(b1-4)GlcNAc
How it was run: as §1

Fuc(a1-2)Gal(b1-4)Glc = molecular target: Fuc(a1-2)Gal(b1-4)Glc
How it was run: as §1

Fuc(a1-2)Gal(b1-4)Glc6S = molecular target: Fuc(a1-2)Gal(b1-4)Glc6S
How it was run: as §1

Fuc(a1-2)Gal(b1-4)GlcNAc = molecular target: Fuc(a1-2)Gal(b1-4)GlcNAc
How it was run: as §1

[20] = molecular target: Fuc(a1-2)Gal(b1-4)GlcNAc(b1-2)Man
How it was run: as §1

[21] = molecular target: Fuc(a1-2)Gal(b1-4)GlcNAc(b1-2)Man(a1-3)[Fuc(a1-2)Gal(b1-4)GlcNAc(b1-2)Man(a1-6)]Man(b1-4)GlcNAc(b1-4)GlcNAc
How it was run: as §1

[22] = molecular target: Fuc(a1-2)Gal(b1-4)GlcNAc(b1-2)Man(a1-3)[Fuc(a1-2)Gal(b1-4)GlcNAc(b1-2)Man(a1-6)]Man(b1-4)GlcNAc(b1-4)[Fuc(a1-6)]GlcNAc
How it was run: as §1

[23] = molecular target: Fuc(a1-2)Gal(b1-4)GlcNAc(b1-2)[Fuc(a1-2)Gal(b1-4)GlcNAc(b1-4)]Man(a1-3)[Fuc(a1-2)Gal(b1-4)GlcNAc(b1-2)Man(a1-6)]Man(b1-4)GlcNAc(b1-4)GlcNAc
How it was run: as §1

[24] = molecular target: Fuc(a1-2)Gal(b1-4)GlcNAc(b1-3)Gal(b1-4)GlcNAc
How it was run: as §1

B1: CD4 (Rattus norvegicus), P05540 (protein)
chain: MCRGFSFRHLLPLLLLQLSKLLVVTQGSTSITAYKSEGESAEFSFPLNLGEESLQGELRWKAEKAPSSQSWITFSLKNQKVSVQKSTSNPKFQLSETLPLTLQIPQVSLQFAGSGNLTLTLDRGILYQEVNLVVMKVTQPDSNTLTCEVMGPTSPKMRLILKQENQEARVSRQEKVIQVQAPEAGVWQCLLSEGEEVKMDSKIQVLSKGLNSGGGSGGGTGGGDLAPQMLRELQETNAALQDVRELLRQQVKEITFLKNTVMECDACGLDRNLPPLAPLGPHPETLVKVKDAEDQLGARVGYIELDLNSGKILESFRPEERFPMMSTFKVLLCGAVLSRIDAGQEQLGRRIHYSQNDLVEYSPVTEKHLTDGMTVRELCSAAITMSDNTAANLLLTTIGGPKELTAFLHNMGDHVTRLDRWEPELNEAIPNDERDTTMPVAMATTLRKLLTGELLTLASRQQLIDWMEADKVAGPLLRSALPAGWFIADKSGAGERGSRGIIAALGPDGKPSRIVVIYTTGSQATMDERNRQIAEIGASLIKHW
glycan array binding signal (z-score) (Fuc(a1-2)Gal): 0.909
glycan array binding signal (z-score) (Fuc(a1-2)Gal(b1-3)GalNAc): -0.186
glycan array binding signal (z-score) [1]: 0.278
glycan array binding signal (z-score) [2]: -0.234
glycan array binding signal (z-score) [3]: 0.94
glycan array binding signal (z-score) [4]: -0.596
glycan array binding signal (z-score) [5]: -0.581
glycan array binding signal (z-score) (Fuc(a1-2)Gal(b1-3)GlcNAc): -0.122
glycan array binding signal (z-score) [6]: -0.35
glycan array binding signal (z-score) [7]: 0.03
glycan array binding signal (z-score) [8]: -0.954
glycan array binding signal (z-score) [9]: 0.495
glycan array binding signal (z-score) [10]: 0.107
glycan array binding signal (z-score) [11]: -0.355
glycan array binding signal (z-score) [12]: -0.447
glycan array binding signal (z-score) [13]: -0.562
glycan array binding signal (z-score) [14]: 0.063
glycan array binding signal (z-score) [15]: 1.64
glycan array binding signal (z-score) [16]: 0.558
glycan array binding signal (z-score) [17]: -0.716
glycan array binding signal (z-score) [18]: -0.81
glycan array binding signal (z-score) [19]: -0.349
glycan array binding signal (z-score) (Fuc(a1-2)Gal(b1-4)Glc): 1.27
glycan array binding signal (z-score) (Fuc(a1-2)Gal(b1-4)Glc6S): 1.96
glycan array binding signal (z-score) (Fuc(a1-2)Gal(b1-4)GlcNAc): -1.16
glycan array binding signal (z-score) [20]: -1.34
glycan array binding signal (z-score) [21]: 0.007
glycan array binding signal (z-score) [22]: 0.12
glycan array binding signal (z-score) [23]: 1.76
glycan array binding signal (z-score) [24]: -1.2

From the supplement of paper PMC8728848
